Some of the results follow.
Target: OsWRKY34 (Oryza sativa, UniProt Q0JBA9 1-250)
Assay: protein-binding microarray (RPBM); PBS, 2% BSA, 51.3 ng/ul salmon testes DNA, 50 uM zinc acetate, 200 nM TF, 25 C, 1 h; high values mean tight binding
Settings: protein: recombinant; tags: N-terminal polyhistidine and DsRed monomer fusion (pET32a); label: CyDye5-dUTP incorporated in the synthesized complementary strand; 3' TTTTT single-stranded linker to array surface; dsDNA, one strand shown
How it was run: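 Transcription factors, each fused N-terminally to a polyhistidine tag and DsRed, were expressed in E. coli BL21-CodonPlus and purified on Ni–NTA. A custom Agilent array was made double-stranded by primer extension with Cy5-dUTP and blocked with 2% BSA. It was incubated with 200 nM protein in PBS, 2% BSA, salmon testes DNA and 50 µM zinc acetate at 25 °C for 1 h, then washed. The binding signal is per-feature fluorescence intensity (arbitrary units) read on an Axon 4000B scanner.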

Sequences of proteins named here, by UniProt entry; tags and fusion partners are left off.
UniProt Q0JBA9, entry or part of it: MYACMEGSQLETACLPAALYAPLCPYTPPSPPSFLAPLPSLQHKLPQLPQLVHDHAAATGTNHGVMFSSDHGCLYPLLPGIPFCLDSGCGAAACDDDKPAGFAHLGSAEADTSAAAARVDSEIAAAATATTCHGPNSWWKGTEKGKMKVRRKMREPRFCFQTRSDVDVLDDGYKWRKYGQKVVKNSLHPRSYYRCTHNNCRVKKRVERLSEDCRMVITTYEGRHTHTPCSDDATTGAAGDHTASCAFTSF

How did the binding signal turn out when “ACACTTCCACATCACCACAATTCTTTTGCACCGTCCGATACGGAGTCACCTAGTGCAG” was run?
Its binding signal is 9010 fluorescence intensity (a.u.).

Which binding signal does the source give for “GAGTTCATAGTTTCATGCTCACCTTGTCATCTCCAGAGTTCGGAGTCACCTAGTGCAG” here?
The binding signal was 8650 fluorescence intensity (a.u.).

With “GAGAGGGGAGGGGAGGGGACAAGTATCGCGGAACCTGACCCGGAGTCACCTAGTGCAG” as the sequence, how does the binding signal read?
The binding signal was 12900 fluorescence intensity (a.u.).

How did the binding signal turn out when “ACCGCAGTTTAGCCATATCGCCGCCGCCGCCGCCGCCATGCGGAGTCACCTAGTGCAG” was run?
The binding signal was 8440 fluorescence intensity (a.u.).

How did the binding signal turn out when “CTGTGCTACAAATCCGCTTTTCTCCTCTCTTCTTCTCATCCGGAGTCACCTAGTGCAG” was run?
Its binding signal is 9780 fluorescence intensity (a.u.).

For “CCTCTCCCTCGTTTTTCGTGCGCATGCTTTTCAAACTGCTCGGAGTCACCTAGTGCAG”, which binding signal is on record?
The binding signal was 8730 fluorescence intensity (a.u.).

How did the binding signal turn out when “ATATCGTATCAGCACGTTATTAGGTGGGGAGAGTGTTTTCCGGAGTCACCTAGTGCAG” was run?
The binding signal was 8140 fluorescence intensity (a.u.).

“GATCAACCTCTGCAATTAGCCATCCCCACGTTCGATTAGCCGGAGTCACCTAGTGCAG” was tested. Which binding signal did it give?
The binding signal was 9030 fluorescence intensity (a.u.).

How did the binding signal turn out when “TTGTGTGGTGGGGCGCCTCAACTGAAGTTGCCAAAATGCTCGGAGTCACCTAGTGCAG” was run?
Its binding signal is 8220 fluorescence intensity (a.u.).

How did the binding signal turn out when “CTCCAACTTGTTCGGTTGTGTCACCCCGGTCTCTAAACTTCGGAGTCACCTAGTGCAG” was run?
Its binding signal is 8530 fluorescence intensity (a.u.).

With “TTCTCTGCAGTCTTTGCCCCATTTTCACATAATCTCCACACGGAGTCACCTAGTGCAG” as the sequence, how does the binding signal read?
Its binding signal is 11500 fluorescence intensity (a.u.).

Which binding signal does the source give for “GTGTTATTTTGTCCGTAGCTGCACATGAAACTATAGCTACCGGAGTCACCTAGTGCAG” here?
Its binding signal is 8100 fluorescence intensity (a.u.).

Which binding signal does the source give for “TCTTTCCTGGCCCGACCGACATCCCCACAGGAGATAACACCGGAGTCACCTAGTGCAG” here?
Its binding signal is 10900 fluorescence intensity (a.u.).

“AAAATAGCATTCATCCGTTGCAACGCACGGACATTTTCGTCGGAGTCACCTAGTGCAG” was tested. Which binding signal did it give?
The binding signal was 8050 fluorescence intensity (a.u.).

With “AGTTTGCGTTGTGTCATCCGTATTTGCAGTAACTCTTTTGCGGAGTCACCTAGTGCAG” as the sequence, how does the binding signal read?
The binding signal was 10300 fluorescence intensity (a.u.).

For “GTTCTGCTAATCTGTAATGTTTCTTTTGTTTGTCATATCTCGGAGTCACCTAGTGCAG”, which binding signal is on record?
The binding signal was 8490 fluorescence intensity (a.u.).

With “GACCATCCCTATGCTCCACCCCACCGTCGCCCGCTCCGGCCGGAGTCACCTAGTGCAG” as the sequence, how does the binding signal read?
Its binding signal is 12300 fluorescence intensity (a.u.).

For “ACTTTTTTCCTAATCAAACTTCTTCACGTTTGACTAAGTTCGGAGTCACCTAGTGCAG”, which binding signal is on record?
The binding signal was 9600 fluorescence intensity (a.u.).

For “AGTATATACTTTTGTTGATTGCATTCTTTCCTTTTCTTTTCGGAGTCACCTAGTGCAG”, which binding signal is on record?
Its binding signal is 12000 fluorescence intensity (a.u.).

“TTTGTGATGTGAAGGTCCGAAGGGTGTTTGGGAGATGGCACGGAGTCACCTAGTGCAG” was tested. Which binding signal did it give?
The binding signal was 8130 fluorescence intensity (a.u.).

“AATGTATAGGTGGTCCCGTGCTTTTGTATTGTGTTTGCGTCGGAGTCACCTAGTGCAG” was tested. Which binding signal did it give?
Its binding signal is 10400 fluorescence intensity (a.u.).

Which binding signal does the source give for “ATCTCCATCTCTATGTGTTACTATGTTATGCGTGTATCGTCGGAGTCACCTAGTGCAG” here?
The binding signal was 9500 fluorescence intensity (a.u.).

“GCAAAGTGTCTCGCTCTCACTCTCACTCTCGAGCCATCGTCGGAGTCACCTAGTGCAG” was tested. Which binding signal did it give?
The binding signal was 10500 fluorescence intensity (a.u.).

“CTCTCTCTCTCTCTCTCGCACCACCGCTCTCTTCCGCCGCCGGAGTCACCTAGTGCAG” was tested. Which binding signal did it give?
Its binding signal is 10800 fluorescence intensity (a.u.).

Which binding signal does the source give for “GCTGCTTGTTTGTTTCCCAATCTCTCATTTCTCTCTCTCACGGAGTCACCTAGTGCAG” here?
The binding signal was 14900 fluorescence intensity (a.u.).

With “TCCAACGCGCCACACTATTGCCTCTTCTCATCACCACTCGCGGAGTCACCTAGTGCAG” as the sequence, how does the binding signal read?
The binding signal was 8860 fluorescence intensity (a.u.).

Which binding signal does the source give for “GGGAAACTCTTCCGTCACCGCCTACCTCACCTCCTCCTACCGGAGTCACCTAGTGCAG” here?
The binding signal was 8430 fluorescence intensity (a.u.).

Which binding signal does the source give for “TTAGTCGAAAAGTCAACGGTGTTATACATTAAAATACGGACGGAGTCACCTAGTGCAG” here?
Its binding signal is 8390 fluorescence intensity (a.u.).

With “GCTGAATTTGTCTTTTTATATCTCGACGTGTGAGTTGAGTCGGAGTCACCTAGTGCAG” as the sequence, how does the binding signal read?
The binding signal was 8590 fluorescence intensity (a.u.).

With “CTCATTCCTTCGCTTCTCTCACCTGCTTGTTTGTTCGTCTCGGAGTCACCTAGTGCAG” as the sequence, how does the binding signal read?
The binding signal was 10500 fluorescence intensity (a.u.).

How did the binding signal turn out when “GATGTACAGATCGCTGGGTGTTTGTTTTGATTTGTTTCAACGGAGTCACCTAGTGCAG” was run?
The binding signal was 13600 fluorescence intensity (a.u.).

For “GAGTTTTAAGGAATAATGTGGGTTTTATGGAAGTTACAAGCGGAGTCACCTAGTGCAG”, which binding signal is on record?
Its binding signal is 8490 fluorescence intensity (a.u.).

How did the binding signal turn out when “CCGTATAGCACCCTCTCGCTGTATACCACCCGGGCGGCCACGGAGTCACCTAGTGCAG” was run?
The binding signal was 8050 fluorescence intensity (a.u.).

With “CTCTCTCGCCGGTGCGGCCGGCTGCCTCTCTCGCCGGTCCCGGAGTCACCTAGTGCAG” as the sequence, how does the binding signal read?
The binding signal was 10200 fluorescence intensity (a.u.).

For “TTTCTGGGTGTTGGGAGGTACCATTAAATTGTGCTTGCATCGGAGTCACCTAGTGCAG”, which binding signal is on record?
Its binding signal is 10300 fluorescence intensity (a.u.).

With “CTCATCTCTACACCTGCAGCCCACGCGACCCACCACTGCGCGGAGTCACCTAGTGCAG” as the sequence, how does the binding signal read?
Its binding signal is 9580 fluorescence intensity (a.u.).

How did the binding signal turn out when “GTCTTTTCTTCAAGGTTATCTTTTTTGTCCCTTTTTTATTCGGAGTCACCTAGTGCAG” was run?
The binding signal was 15200 fluorescence intensity (a.u.).

Which binding signal does the source give for “ATCGGATGGGTGGGCGCAAAGGATGACAGCTGGAGTGGTACGGAGTCACCTAGTGCAG” here?
The binding signal was 11400 fluorescence intensity (a.u.).

How did the binding signal turn out when “GCATCGGCTCCCATCATCATGACTCGGCCGGAGTTGCTCACGGAGTCACCTAGTGCAG” was run?
The binding signal was 9110 fluorescence intensity (a.u.).

Which binding signal does the source give for “GTTTATTTTTTAGTCTTTGCTTTTTTATTGCTAAGTACACCGGAGTCACCTAGTGCAG” here?
The binding signal was 9300 fluorescence intensity (a.u.).

“ACTTATATTTAACACCTTCTCAGAATGTTTATTTATTATTCGGAGTCACCTAGTGCAG” was tested. Which binding signal did it give?
The binding signal was 9180 fluorescence intensity (a.u.).

How did the binding signal turn out when “AAAAAGATTAATTTGGGCGGGGAGAGAGATTCGCAAAGCGCGGAGTCACCTAGTGCAG” was run?
The binding signal was 8160 fluorescence intensity (a.u.).

With “GCCATTCTCTCCGCGACGGTCTCGTCTTCCCCACCCCTCGCGGAGTCACCTAGTGCAG” as the sequence, how does the binding signal read?
The binding signal was 8510 fluorescence intensity (a.u.).

How did the binding signal turn out when “TTTCTGCTATAAGTTGGATGGATCTTTCTTTATTCAATAACGGAGTCACCTAGTGCAG” was run?
Its binding signal is 8100 fluorescence intensity (a.u.).

With “TTAGTTTTGATTCTGTTCAGAAATCGGTGACCCTTTTCATCGGAGTCACCTAGTGCAG” as the sequence, how does the binding signal read?
Its binding signal is 9820 fluorescence intensity (a.u.).

For “ACACAGTATTTAACCCATGTTCTGCTTCACTGTATTTTTGCGGAGTCACCTAGTGCAG”, which binding signal is on record?
The binding signal was 12300 fluorescence intensity (a.u.).

Which binding signal does the source give for “CATATCTAACTTTTGACCATCCGTTTTATTTAAAAAAATACGGAGTCACCTAGTGCAG” here?
Its binding signal is 8310 fluorescence intensity (a.u.).

For “TGCCACGCCCGTTCGTCCATGTCCTCGGCGGCGGTGGCGGCGGAGTCACCTAGTGCAG”, which binding signal is on record?
The binding signal was 10100 fluorescence intensity (a.u.).

Which binding signal does the source give for “AGTGGTGCCTGGCCCGTTCGTCGCATTCACAATCACACACCGGAGTCACCTAGTGCAG” here?
The binding signal was 10500 fluorescence intensity (a.u.).

With “AATTAAAGAGGTTTACCAGCCCAGTTGACCAATACCAACCCGGAGTCACCTAGTGCAG” as the sequence, how does the binding signal read?
The binding signal was 8340 fluorescence intensity (a.u.).

“CCTCTAACCGGTCATCCGTCCTTCATTTGCCGTATAGAAGCGGAGTCACCTAGTGCAG” was tested. Which binding signal did it give?
The binding signal was 10200 fluorescence intensity (a.u.).

“GTCCTTCCATCAACCATGTGCACGCCCGTTTTCTGTTCTACGGAGTCACCTAGTGCAG” was tested. Which binding signal did it give?
The binding signal was 10500 fluorescence intensity (a.u.).

“TATCGTACAAGCAACTCCTCTGCACCTCTTTTCTTTAAAACGGAGTCACCTAGTGCAG” was tested. Which binding signal did it give?
Its binding signal is 9120 fluorescence intensity (a.u.).

How did the binding signal turn out when “AAATAGGGTTGTTCATCATTATTTTTGCGGGTTCATTAAGCGGAGTCACCTAGTGCAG” was run?
Its binding signal is 8420 fluorescence intensity (a.u.).
